# Results of single-concentration screens

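Assay of Toxoplasma gondii numbers, read through their beta-galactosidase reporter with a colour substrate. Concentration: 10 µM. The record gives no direction; the compounds picked for IC50 retests had high values, so higher reads as fewer parasites. Of about 67,000 compounds tested this way, about 260 (0.38%) reached 50% or more in at least one test.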

Values are the deposited “Percent Effect”, in %.
How 0% and 100% were set is not recorded. Most values in the screen are low, and negative values occur.
This is an unselected part of the compounds tested.

compound,Percent Effect
Cc1n[nH]cc1CNC(C(=O)N1CCCCC1)c1ccccc1 (stereo not given),2.21
[H][C@@]12CS(=O)(=O)C[C@]1([H])N(C(=O)Cc1ccc(CO)cc1)CCN2CC1CC1,15.59
O=C(c1cnc(Nc2ccccc2)nc1)N1CCC(O)(CO)CC1,-2.232
O=C(CCCc1cn[nH]c1)N1C[C@H](CO)C[C@H](CN2CCCC2)C1,0.05764
N#Cc1ccccc1Cn1cncn1,14.05
COCCN(Cc1sccc1C)Cc1nccn1CCOC,5.681
Cc1cc(N(C)C)nc(C2COCCN2Cc2csc(C)n2)n1 (stereo not given),17.12
CC(C)c1cc(CN(C)C(=O)CN2CCCCC2=O)no1,23.39
O=C(COC1CCCC1)NCc1ccc(O)c(F)c1,5.622
CCc1noc(C2CCCCN2C(=O)c2cccnc2)n1 (stereo not given),-4.377
O=C(O)c1cncc(Cc2cccc(F)c2)c1,-19.57
CCn1cc(C(=O)NCc2cccnc2N(C)Cc2ccccc2)cn1,1.864
Cc1nc(CC(=O)N2CCCC2c2nc(C(C)C)no2)cs1 (stereo not given),-1.304
COCCNC(=O)c1cc2c(c3ccccc3n2C)n1C(=O)N(C)C,3.824
CC1CS(=O)(=O)CCN1CCCc1ccc(Cl)cc1 (stereo not given),-32.02
O=C(C1CC1)N1CCN(Cc2ccncc2)c2ncccc2C1.O=C(O)C(F)(F)F.O=C(O)C(F)(F)F,4.499
Cc1nccnc1C1CCN(C(=O)C(C)C)CC1,-7.969
COc1cccc2c1OCC(C(=O)N1CCC(NS(C)(=O)=O)CC1)C2 (stereo not given),-10.87
CC(C)CN1Cc2nc(N3CCCC3)ncc2C1=O,-24.44
Cc1cc(NC(=O)CNC(C)(C)c2ccc3c(c2)OCCO3)no1,6.313
CCCNC(=O)CC1OCCc2ccsc21 (stereo not given),-0.5882
COc1cc(CN(C)C(C)c2ccccn2)cc2c1OCO2 (stereo not given),15.11
Cc1cnn(CC2CCCN2Cc2coc(-c3ccccc3)n2)c1 (stereo not given),0
COCc1nc(C(=O)N2CCN(c3nccc(OC)n3)CC2)cs1,-2.029
O=C(O)C(F)(F)F.[H][C@@]12COC[C@]1(c1nnc(C)o1)CN(Cc1nccs1)C2,0.3723
Cc1noc(-c2ccc(-n3ncc(C(=O)O)c3C)nc2)n1,-4.992
O=C(Nc1nncs1)c1ccc(O)nc1,2.913
COc1ncccc1CNC(=O)c1cccc(C)n1,-11.2
Cc1ccccc1CC(=O)N1CCCn2cncc2C1,-30.97
Cc1cc2cccc(C(=O)N3CC[C@@H](N)[C@H](O)C3)c2o1,-25.21
Cc1nc(CN2CCN(C(=O)c3sccc3C3CC3)CC2)cs1,-1.359
COc1cccc(CCC(=O)N2CCCC(c3nncn3C)C2)c1 (stereo not given),-14.52
Cc1noc(CN(C)C2CCCN(Cc3noc(C4CC4)n3)C2)n1 (stereo not given),-12.25
Br.Cc1ncc(C(=O)N2CCOC(C(=O)N3CCCCCC3)C2)c(C)n1 (stereo not given),4.994
COc1cc(C(=O)N2CCC(c3n[nH]c(C4CC4)n3)CC2)ccc1C,-1.856
CC(C)c1nc(C2CCCN(C(=O)c3ccc4c(c3)OCO4)C2)no1 (stereo not given),-23.41
O=C(CCCNC(=O)Nc1ccc(F)cc1F)Nc1cn[nH]c1,-12.05
Cc1ccc(CN2CCn3c(COc4cccnc4)cnc3C2C)o1.O=C(O)C(F)(F)F.O=C(O)C(F)(F)F (stereo not given),-8.129
CN(CC1CC1)c1ccc2ccc(C(=O)NCCc3ccccc3)cn12,-51.1
CN(C)c1ccc(C(=O)N2CCCC2c2cnn(C)c2)cn1 (stereo not given),-5.263
O=C(Cc1cccs1)NC1(C(=O)NCC2CC2)CCCC1,-6.963
N#CCCNC(=O)CSc1cc(F)ccc1F,3.823
CCC(Nc1cccc(OC)c1)C(=O)NCc1ccc2[nH]c(=O)[nH]c2c1 (stereo not given),16.32
COc1cccc(-c2nc(CNCc3cccnc3)cs2)c1,-2.393
CCn1c(CC2CCN(C(=O)c3cc(C(C)C)nn3C)CC2)n[nH]c1=O,9.81
Cc1nc(CNCC2CCCN2c2cccnn2)cs1 (stereo not given),-9.88
CCOC(=O)CSc1ccc(-c2nc(C)no2)cn1,-6.649
O=C(O)C(F)(F)F.O=C(O)C(F)(F)F.[H][C@@]12C[C@@H](OCc3ccccn3)CN1CCN(c1ncccn1)C2,-1.241
CN1CCN(C(=O)c2cc(-c3cccs3)cs2)CC1,-45.58
[H][C@@]12CC(=O)N(C)[C@@]1([H])CCN2C(=O)c1ccc[nH]1,22.89
NC(=O)NC(=O)CCN1CCC(C(=O)c2cc(F)ccc2F)CC1,-26.76
Fc1cccc2c1CCC2NCc1cnc(N2CCOCC2)nc1 (stereo not given),-12.13
N#Cc1cnn(C(=O)CCCOc2ccccc2Cl)c1N,3.092
Cc1ccsc1C(=O)N1CCc2ncc(Cn3cccn3)n2CC1,9.338
CC(=O)N1CCN(S(=O)(=O)c2ccc(C)c(F)c2)CC1,3.871
Cc1nc2n(n1)CC(NCc1ccnc(-c3ccccc3)n1)CC2 (stereo not given),6.09

For reference, 7 entries once more:

compound	Percent Effect
O=C(O)c1cncc(Cc2cccc(F)c2)c1	-19.57
Fc1cccc2c1CCC2NCc1cnc(N2CCOCC2)nc1 (stereo not given)	-12.13
COCc1nc(C(=O)N2CCN(c3nccc(OC)n3)CC2)cs1	-2.029
Cc1nc(CNCC2CCCN2c2cccnn2)cs1 (stereo not given)	-9.88
O=C(O)C(F)(F)F.[H][C@@]12COC[C@]1(c1nnc(C)o1)CN(Cc1nccs1)C2	0.3723
COc1cccc(CCC(=O)N2CCCC(c3nncn3C)C2)c1 (stereo not given)	-14.52
COc1cccc2c1OCC(C(=O)N1CCC(NS(C)(=O)=O)CC1)C2 (stereo not given)	-10.87

Source: ChEMBL document CHEMBL3988442, “University of Dundee, Small-Polar-MMV Screening Library” (2021).